In PubChem BioAssay AID1487 (National Center for Advancing Translational Sciences (NCATS), 2009):
The other results are listed elsewhere or left out. These are further read-outs of the screen, such as a control signal, another cell line or another target. No call is given for them. Compounds called inactive in the main read-out are mostly missing here. Words in brackets tell the shape of the fitted curve; partial curves, single points and poor fits give uncertain potencies.

Test: qHTS Assay for Modulators of Lamin A Splicing
Details: HeLa LMNA splicing GFP/RFP minigene ratio, 48 h
Summary of the method: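 S3 HeLa stable clones carrying a lamin A-EGFP splicing minigene plus DsRed2 were seeded at 600 cells/well in Opti-MEM with 2% FBS, pin-dosed and incubated 48 h at 37°C. Acumen cytometry (488 nm) gave the GFP/RFP total-intensity ratio.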

[1] = measured here: RFP viability control channel
[2] = measured here: GFP splicing reporter channel

SMILES | AC50 [1] | AC50 [2]
O=C(NCc1nc(-c2ccccc2)no1)c1ccc(Br)o1 | 10 µM [rising, partial curve] | 
O=C(NCc1ccco1)c1cc(S(=O)(=O)N2CCOCC2)c(Cl)cc1Cl | 35.5 µM [rising, single point] | 
CCCCCNC(=O)C1CCC(Cn2c(=O)c3sccc3n(CC)c2=O)CC1 (stereo not given) |  | 10 µM [falling, partial curve, poor fit]
O=C(NCc1ccc2[nH]c3c(c2c1)CCCC3)c1ccc(S(=O)(=O)N2CCCCC2)cc1 | 14.1 µM [rising, partial curve, poor fit] | 2.82 µM [rising, partial curve, poor fit]
COc1ccc(N2C(=O)CC(Sc3nnnn3-c3ccc(F)cc3)C2=O)cc1 (stereo not given) | 0.708 µM [rising, single point] | 2.51 µM [falling, partial curve, poor fit]
Cc1ccc(NC(=O)C2CCCN(C(=O)c3ccc(Cl)cc3)C2)cc1S(=O)(=O)N1CCOCC1 (stereo not given) | 2.82 µM [falling, partial curve, poor fit] | 6.31 µM [falling, partial curve, poor fit]
CCCCNC(=O)CC1N=C2c3ccccc3N=C(SCC(=O)Nc3ccccc3OC)N2C1=O (stereo not given) | 14.1 µM [rising, partial curve] | 14.1 µM [rising, partial curve, poor fit]
O=C(CC1C(=O)NCCN1Cc1ccoc1)NCCc1ccc(Cl)cc1 (stereo not given) |  | 0.0251 µM [rising, full curve, poor fit]
CC(OC(=O)C(C)N1C(=O)C2C3C=CC(C4CC34)C2C1=O)C(=O)c1ccccc1 (stereo not given) | 15.8 µM [rising, single point] | 
NC(N)=NC(N)=Nc1cccc(Cl)c1 | 6.31 µM [falling, single point] | 0.01 µM [falling, full curve, poor fit]
CCC(CC)C(=O)N1CCc2cc(OC)c(OC)cc2C1COc1ccc(F)cc1 (stereo not given) |  | 17.8 µM [falling, partial curve]
CC1(C)CC(CCN(Cc2ccccc2)C(=O)c2ccco2)(c2ccccc2)CCO1 (stereo not given) | 12.6 µM [rising, partial curve, poor fit] | 
Cc1nc(NC(=O)c2ccccc2)sc1-c1csc(Nc2cccc(F)c2)n1 | 15.8 µM [falling, single point] | 15.8 µM [falling, single point]
O=C(CNC(=O)c1cccc(Br)c1)N/N=C/c1cc(Br)cc(Br)c1O | 17.8 µM [rising, single point] | 
Cc1cc(N2CCCC2=O)cc(C)c1S(=O)(=O)NCCOc1ccc(C(C)(C)C)cc1 | 14.1 µM [rising, single point] | 
O=C(CNCC1CCCO1)N1CCCCCC1 (stereo not given) | 0.126 µM [falling, full curve, poor fit] | 11.2 µM [falling, partial curve, poor fit]
CCc1ccc(NS(=O)(=O)c2ccc3[nH]c4c(c3c2)CCCCCC4)cc1 | 11.2 µM [falling, partial curve] | 12.6 µM [falling, partial curve]
O=C(CCCSc1nc2ccccc2[nH]1)NCc1ccc(Cl)cc1 | 20 µM [rising, single point] | 12.6 µM [rising, single point]
COc1ccc(CN2CCN(C(=O)c3cccs3)CC2)cc1 | 35.5 µM [rising, single point] | 
C[C@@](N)(Cc1ccc(O)c(O)c1)C(=O)O | 0.316 µM [falling, full curve, poor fit] | 0.251 µM [falling, full curve]
Nc1c(-c2ccccc2)c(CSc2nc3ccccc3[nH]2)nn1-c1cccc(Cl)c1 | 3.55 µM [rising, full curve] | 
O=C(NC(Nc1nc2ccc([N+](=O)[O-])cc2s1)(C(F)(F)F)C(F)(F)F)c1ccccc1 | 0.398 µM [rising, full curve] | 
O=C(CSc1nc(Nc2ccc(F)c(F)c2)c2ccccc2n1)c1ccc(Cl)cc1 | 11.2 µM [falling, partial curve, poor fit] | 
O/N=C(\c1ccc(Cl)cc1)c1cc2ccccc2o1 | 35.5 µM [rising, single point] | 
N#CC1=C(N)N(c2ccccc2)C(c2ccccc2)C1(C#N)C#N (stereo not given) | 8.91 µM [rising, partial curve] | 2.82 µM [rising, full curve]
CCOc1ncccc1C(=O)OCC(=O)c1ccc(F)cc1 | 0.224 µM [rising, partial curve, poor fit] | 
O=C1c2ccccc2NC2CCCCC12 (stereo not given) | 11.2 µM [rising, single point] | 35.5 µM [rising, single point]

Fetched one by one from the entries so far, two records:
SMILES | AC50 [1] | AC50 [2]
COc1ccc(CN2CCN(C(=O)c3cccs3)CC2)cc1 | 35.5 µM [rising, single point] | 
CCCCNC(=O)CC1N=C2c3ccccc3N=C(SCC(=O)Nc3ccccc3OC)N2C1=O (stereo not given) | 14.1 µM [rising, partial curve] | 14.1 µM [rising, partial curve, poor fit]

Next structures.

SMILES | AC50 [1] | AC50 [2]
CC(C)NC(=O)c1onc(CSc2cccc(Cl)c2)c1C(=O)O |  | 10 µM [falling, single point]
COc1ccc(-c2nc3cc(NC(=O)COc4ccc(F)cc4)ccc3o2)cc1 |  | 1.41 µM [rising, full curve, poor fit]
C/C(=N\N=C(/N)SC1CC(=O)N(c2ccc(Cl)c(Cl)c2)C1=O)c1cccs1 (stereo not given) | 22.4 µM [falling, partial curve] | 17.8 µM [falling, partial curve]
Cc1ccc(Cl)c(OC(=O)Cn2cnc3c2c(=O)n(C)c(=O)n3C)c1 | 3.98 µM [rising, full curve, poor fit] | 2.51 µM [rising, full curve]
Cc1cc(/C=N/NC(=O)C(=O)NCc2ccccn2)c(C)n1-c1cccc(Br)c1 | 35.5 µM [rising, partial curve, poor fit] | 0.0562 µM [rising, full curve, poor fit]
O=C(CCCCCCN1C(=O)c2ccccc2C1=O)N1CCC(c2ccccc2)C1 (stereo not given) | 35.5 µM [rising, single point] | 
COc1cc(-c2nc3cnccn3c2Nc2ccccc2)ccc1O | 25.1 µM [rising, partial curve] | 
CCOC(=O)N1CCC(NC(=O)c2cnn(-c3ccccc3)c2C2CCN(C(=O)OC(C)(C)C)CC2)CC1 | 0.00316 µM [falling, full curve, poor fit] | 0.0126 µM [falling, full curve]
COc1ccc(-n2c(COc3cccc4ccccc34)nnc2SCC#N)cc1 | 35.5 µM [rising, single point] | 
CCn1c(=N)c(C(=O)NCCCOC)cc2c(=O)n3cccc(C)c3nc21 | 10 µM [rising, partial curve] | 
CS(=O)(=O)c1nc(-c2ccccc2)cc(-c2ccccc2)c1C#N | 35.5 µM [falling, single point] | 12.6 µM [falling, partial curve]
Cc1ccc(C(=O)N2c3nc(-c4ccco4)nn3C3(CCCCC3)[C@@H]3CCCC[C@@H]32)cc1 |  | 15.8 µM [rising, partial curve, poor fit]
Cc1cccc(NC(=O)NNC(=O)c2c(Cl)c(C)nn2C)c1 | 17.8 µM [rising, single point] | 11.2 µM [rising, partial curve]
COC/C=C/C1=CC2=CC(=O)C(C)(OC(=O)c3cnc4ccccc4n3)C(=O)C2=CN1Cc1ccccc1 (stereo not given) |  | 0.000794 µM [rising, full curve, poor fit]
COc1ccc(S(=O)(=O)N2CCc3ccccc32)cc1NC(C)=O | 3.98 µM [rising, full curve] | 
COc1cccc(N2CCN(C(=O)CN3CCSc4ccc(S(=O)(=O)N(C)C)cc43)CC2)c1 | 14.1 µM [rising, single point] | 
COC(=O)c1ccc(OCC2c3cc(OC)c(OC)cc3CCN2C(=O)c2cccc(C)c2)cc1 (stereo not given) |  | 22.4 µM [falling, partial curve, poor fit]
CCOC(=O)/C(C#N)=C(C)/C=C1\Sc2ccccc2N1CC | 35.5 µM [falling, single point] | 28.2 µM [falling, single point]
CSc1ccc(-c2nnn(Cc3ccc(Br)cc3)n2)cc1 | 31.6 µM [rising, single point] | 
O=C(C1CCN(c2nnc(-n3cccc3)s2)CC1)N1CCN(Cc2ccc3c(c2)OCO3)CC1 | 8.91 µM [rising, partial curve] | 
COc1cccc(CNC(=O)Cn2c(=O)n3nc(-c4cccc(C)c4)nc3c3ccccc32)c1 | 14.1 µM [falling, partial curve] | 
C=CCNc1ncnc2c1[nH]c1ccc(Cl)cc12 | 14.1 µM [rising, partial curve] | 
CSc1ccc(S(=O)(=O)Nc2ccc3c(c2)OCCO3)cc1 | 15.8 µM [rising, partial curve] | 11.2 µM [rising, partial curve, poor fit]
Cc1ccc(OCC(=O)Nc2cccc(S(=O)(=O)N3CCCCC3)c2)c([N+](=O)[O-])n1 | 8.91 µM [rising, partial curve] | 
COc1cccc(-c2csc(N3CCN(Cc4ccccc4)CC3)n2)c1 | 35.5 µM [rising, single point] | 
COc1cccc([C@@H]2Oc3ccc(OC)cc3C(=O)[C@H]2OC(=O)Nc2cc(OC)c(OC)c(OC)c2)c1 | 25.1 µM [rising, single point] | 
OC(CN1C2=NCCN2c2ccccc21)c1ccc(Br)cc1 (stereo not given) | 15.8 µM [rising, single point] | 22.4 µM [rising, single point]

Full records from above.
CSc1ccc(-c2nnn(Cc3ccc(Br)cc3)n2)cc1 reads AC50 [1]: 31.6 µM [rising, single point]
O/N=C(\c1ccc(Cl)cc1)c1cc2ccccc2o1 reads AC50 [1]: 35.5 µM [rising, single point]
